Assay results as given in the supplement of paper PMC10849652.
This is one part of the list. Residues, ends and D or L forms follow the SMILES beside them. *: point of attachment. Cbz = O=C(OCc1ccccc1)*

Amino acid sequences for entries named in this document (tags omitted). A change or cut given only in a name is not applied to a line headed by its entry.
UniProt Q96GS6: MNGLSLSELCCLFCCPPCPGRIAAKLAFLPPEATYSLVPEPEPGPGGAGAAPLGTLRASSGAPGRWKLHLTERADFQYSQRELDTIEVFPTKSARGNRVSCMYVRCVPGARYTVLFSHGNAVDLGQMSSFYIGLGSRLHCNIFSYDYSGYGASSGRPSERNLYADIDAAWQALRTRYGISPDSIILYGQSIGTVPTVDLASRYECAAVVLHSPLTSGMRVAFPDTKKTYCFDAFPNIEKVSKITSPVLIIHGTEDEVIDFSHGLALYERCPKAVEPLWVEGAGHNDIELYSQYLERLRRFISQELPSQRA
UniProt O95573: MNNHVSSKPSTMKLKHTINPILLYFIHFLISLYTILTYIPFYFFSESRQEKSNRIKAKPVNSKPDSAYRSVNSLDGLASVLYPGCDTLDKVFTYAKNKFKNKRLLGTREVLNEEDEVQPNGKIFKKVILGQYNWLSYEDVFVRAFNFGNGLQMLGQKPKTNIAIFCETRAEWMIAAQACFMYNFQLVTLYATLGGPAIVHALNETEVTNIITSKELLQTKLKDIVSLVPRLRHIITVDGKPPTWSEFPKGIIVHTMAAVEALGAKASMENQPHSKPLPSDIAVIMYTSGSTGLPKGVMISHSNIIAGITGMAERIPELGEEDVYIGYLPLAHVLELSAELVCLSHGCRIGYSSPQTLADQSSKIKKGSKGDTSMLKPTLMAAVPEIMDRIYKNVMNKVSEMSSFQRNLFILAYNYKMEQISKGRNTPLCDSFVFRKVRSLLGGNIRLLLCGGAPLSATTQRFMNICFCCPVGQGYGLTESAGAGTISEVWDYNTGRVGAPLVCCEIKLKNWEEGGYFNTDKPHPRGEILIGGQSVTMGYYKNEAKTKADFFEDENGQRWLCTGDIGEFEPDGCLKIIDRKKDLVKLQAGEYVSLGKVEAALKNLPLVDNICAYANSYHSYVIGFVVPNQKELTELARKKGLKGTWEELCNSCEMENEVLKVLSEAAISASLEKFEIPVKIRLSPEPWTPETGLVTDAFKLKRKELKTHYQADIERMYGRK
UniProt Q99798: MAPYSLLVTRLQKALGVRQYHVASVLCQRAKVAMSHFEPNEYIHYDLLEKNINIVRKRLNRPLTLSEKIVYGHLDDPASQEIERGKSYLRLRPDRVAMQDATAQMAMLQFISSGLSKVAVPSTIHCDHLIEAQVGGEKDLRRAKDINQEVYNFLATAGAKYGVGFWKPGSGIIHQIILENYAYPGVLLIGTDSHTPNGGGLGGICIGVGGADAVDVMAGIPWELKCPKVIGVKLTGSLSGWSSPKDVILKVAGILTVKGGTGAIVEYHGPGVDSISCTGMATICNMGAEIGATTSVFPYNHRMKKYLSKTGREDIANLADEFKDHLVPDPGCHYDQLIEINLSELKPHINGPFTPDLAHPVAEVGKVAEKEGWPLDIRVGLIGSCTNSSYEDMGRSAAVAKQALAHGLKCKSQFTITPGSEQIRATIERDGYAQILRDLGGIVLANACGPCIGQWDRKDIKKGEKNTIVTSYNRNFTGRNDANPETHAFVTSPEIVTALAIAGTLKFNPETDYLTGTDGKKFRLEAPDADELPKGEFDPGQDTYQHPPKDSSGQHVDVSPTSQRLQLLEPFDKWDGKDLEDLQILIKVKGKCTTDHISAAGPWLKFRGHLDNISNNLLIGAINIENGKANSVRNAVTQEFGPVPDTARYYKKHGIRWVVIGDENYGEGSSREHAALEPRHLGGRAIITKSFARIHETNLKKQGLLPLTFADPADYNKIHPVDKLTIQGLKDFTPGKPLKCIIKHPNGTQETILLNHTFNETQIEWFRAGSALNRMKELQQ
UniProt Q99758: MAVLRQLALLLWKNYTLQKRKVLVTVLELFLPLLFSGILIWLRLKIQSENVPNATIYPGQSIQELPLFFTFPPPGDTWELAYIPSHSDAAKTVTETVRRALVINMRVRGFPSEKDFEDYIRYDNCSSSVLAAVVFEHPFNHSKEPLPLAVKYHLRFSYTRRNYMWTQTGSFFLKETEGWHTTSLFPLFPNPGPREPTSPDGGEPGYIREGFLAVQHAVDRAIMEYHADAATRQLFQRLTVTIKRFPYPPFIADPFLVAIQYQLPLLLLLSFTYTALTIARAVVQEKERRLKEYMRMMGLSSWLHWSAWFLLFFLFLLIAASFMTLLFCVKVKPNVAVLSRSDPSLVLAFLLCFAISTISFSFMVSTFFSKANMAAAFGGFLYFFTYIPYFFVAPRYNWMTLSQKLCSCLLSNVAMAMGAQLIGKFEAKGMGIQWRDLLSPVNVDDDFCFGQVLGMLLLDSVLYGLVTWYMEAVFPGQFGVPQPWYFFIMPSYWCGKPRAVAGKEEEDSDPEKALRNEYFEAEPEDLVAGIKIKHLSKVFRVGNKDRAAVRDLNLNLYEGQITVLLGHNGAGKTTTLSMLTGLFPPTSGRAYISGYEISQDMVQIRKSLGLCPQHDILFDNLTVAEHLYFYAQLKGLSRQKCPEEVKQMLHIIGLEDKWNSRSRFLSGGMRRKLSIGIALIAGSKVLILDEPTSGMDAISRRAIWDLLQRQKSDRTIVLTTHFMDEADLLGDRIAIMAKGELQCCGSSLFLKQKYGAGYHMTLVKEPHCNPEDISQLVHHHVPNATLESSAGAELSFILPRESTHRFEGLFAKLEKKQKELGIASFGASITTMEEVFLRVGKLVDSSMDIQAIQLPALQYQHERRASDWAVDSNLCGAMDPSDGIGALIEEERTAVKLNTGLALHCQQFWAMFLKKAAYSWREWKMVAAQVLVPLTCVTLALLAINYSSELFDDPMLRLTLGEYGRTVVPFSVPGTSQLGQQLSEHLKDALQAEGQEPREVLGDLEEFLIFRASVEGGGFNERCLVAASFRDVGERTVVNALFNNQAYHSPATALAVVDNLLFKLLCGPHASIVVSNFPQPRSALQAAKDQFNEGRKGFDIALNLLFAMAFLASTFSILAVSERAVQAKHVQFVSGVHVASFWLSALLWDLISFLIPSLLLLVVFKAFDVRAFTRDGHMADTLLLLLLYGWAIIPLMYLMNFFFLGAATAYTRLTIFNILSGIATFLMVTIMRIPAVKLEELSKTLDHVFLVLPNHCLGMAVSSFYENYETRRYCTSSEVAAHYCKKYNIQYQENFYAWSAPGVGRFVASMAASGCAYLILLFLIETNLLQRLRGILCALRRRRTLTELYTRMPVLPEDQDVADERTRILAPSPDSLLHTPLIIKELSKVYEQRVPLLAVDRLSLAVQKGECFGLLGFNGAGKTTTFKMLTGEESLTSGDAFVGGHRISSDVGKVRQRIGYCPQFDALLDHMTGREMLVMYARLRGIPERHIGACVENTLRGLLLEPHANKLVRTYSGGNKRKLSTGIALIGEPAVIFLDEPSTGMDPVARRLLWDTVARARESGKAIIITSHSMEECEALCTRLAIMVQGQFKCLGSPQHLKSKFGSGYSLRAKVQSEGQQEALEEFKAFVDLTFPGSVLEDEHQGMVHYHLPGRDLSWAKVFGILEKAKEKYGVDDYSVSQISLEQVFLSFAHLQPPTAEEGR
UniProt O15254: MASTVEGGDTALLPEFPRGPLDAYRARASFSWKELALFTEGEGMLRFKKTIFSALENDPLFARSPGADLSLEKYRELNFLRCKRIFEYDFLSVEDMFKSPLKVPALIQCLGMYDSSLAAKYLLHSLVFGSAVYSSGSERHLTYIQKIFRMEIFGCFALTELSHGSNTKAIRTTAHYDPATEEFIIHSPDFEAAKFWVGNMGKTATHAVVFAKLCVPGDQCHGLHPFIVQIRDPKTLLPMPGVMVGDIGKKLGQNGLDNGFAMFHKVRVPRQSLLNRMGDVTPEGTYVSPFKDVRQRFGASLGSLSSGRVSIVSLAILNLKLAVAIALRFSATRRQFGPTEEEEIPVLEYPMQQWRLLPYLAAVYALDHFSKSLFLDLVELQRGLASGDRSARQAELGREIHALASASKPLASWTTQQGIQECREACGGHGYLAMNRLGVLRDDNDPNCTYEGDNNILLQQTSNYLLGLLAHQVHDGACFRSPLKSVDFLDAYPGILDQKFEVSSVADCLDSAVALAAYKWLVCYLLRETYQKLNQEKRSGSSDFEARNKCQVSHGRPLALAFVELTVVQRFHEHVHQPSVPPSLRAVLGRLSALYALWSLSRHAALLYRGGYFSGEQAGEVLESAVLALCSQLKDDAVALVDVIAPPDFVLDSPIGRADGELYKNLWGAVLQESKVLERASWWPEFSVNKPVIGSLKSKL
UniProt Q5T3U5: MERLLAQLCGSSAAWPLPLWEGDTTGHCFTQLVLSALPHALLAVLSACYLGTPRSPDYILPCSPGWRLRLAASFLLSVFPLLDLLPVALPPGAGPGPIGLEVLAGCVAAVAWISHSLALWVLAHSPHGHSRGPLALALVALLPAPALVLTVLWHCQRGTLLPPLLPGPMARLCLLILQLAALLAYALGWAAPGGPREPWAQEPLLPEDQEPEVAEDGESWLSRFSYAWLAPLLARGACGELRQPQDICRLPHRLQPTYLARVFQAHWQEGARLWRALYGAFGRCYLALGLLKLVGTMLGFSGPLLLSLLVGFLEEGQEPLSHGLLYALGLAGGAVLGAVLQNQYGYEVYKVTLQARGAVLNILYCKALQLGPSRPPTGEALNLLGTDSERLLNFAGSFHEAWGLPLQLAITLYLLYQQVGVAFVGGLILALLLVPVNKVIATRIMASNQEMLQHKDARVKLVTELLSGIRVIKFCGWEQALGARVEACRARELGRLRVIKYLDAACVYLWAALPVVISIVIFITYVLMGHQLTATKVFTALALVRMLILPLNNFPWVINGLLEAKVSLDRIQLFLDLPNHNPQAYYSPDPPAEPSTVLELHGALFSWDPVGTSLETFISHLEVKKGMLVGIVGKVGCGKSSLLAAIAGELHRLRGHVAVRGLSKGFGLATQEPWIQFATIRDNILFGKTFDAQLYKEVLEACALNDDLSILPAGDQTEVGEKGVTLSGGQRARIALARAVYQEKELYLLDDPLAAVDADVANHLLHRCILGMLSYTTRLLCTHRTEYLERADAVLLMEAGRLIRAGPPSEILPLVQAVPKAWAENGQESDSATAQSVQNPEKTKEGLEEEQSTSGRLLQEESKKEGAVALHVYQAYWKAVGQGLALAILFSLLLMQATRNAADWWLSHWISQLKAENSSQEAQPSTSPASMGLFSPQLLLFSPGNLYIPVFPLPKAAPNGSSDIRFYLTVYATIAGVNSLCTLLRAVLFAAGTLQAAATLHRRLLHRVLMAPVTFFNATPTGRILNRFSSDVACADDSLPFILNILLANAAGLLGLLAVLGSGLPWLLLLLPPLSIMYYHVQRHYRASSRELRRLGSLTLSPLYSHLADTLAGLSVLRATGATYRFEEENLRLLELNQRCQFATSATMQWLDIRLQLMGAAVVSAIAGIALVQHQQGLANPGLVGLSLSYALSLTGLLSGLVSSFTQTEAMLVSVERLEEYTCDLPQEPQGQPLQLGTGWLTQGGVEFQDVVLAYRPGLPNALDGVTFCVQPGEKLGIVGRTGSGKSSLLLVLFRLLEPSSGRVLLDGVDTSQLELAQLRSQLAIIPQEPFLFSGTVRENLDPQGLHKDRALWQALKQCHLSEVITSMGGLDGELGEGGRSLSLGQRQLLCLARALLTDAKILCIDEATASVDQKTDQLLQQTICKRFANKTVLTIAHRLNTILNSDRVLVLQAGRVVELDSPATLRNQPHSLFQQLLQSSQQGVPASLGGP

Assays:
Assay in all cases: log2 fold change, soluble protein after heating vs DMSO (PISA); higher = thermal stabilisation; K562 cells, 10 uM, 30 min; active = over 0.2 and 3.5 SD of the protein, either way, in both replicates (recomputed)
erlotinib = compound: C#Cc1cccc(Nc2ncnc3cc(OCCOC)c(OCCOC)cc23)c1 [erlotinib]
In short: (§1)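 K562 cells at 2×10^6 cells/mL were given 10 μM compound for 30 min. Aliquots then went through 3 min of heating across 48°C-58°C, were pooled, and were extracted in PBS with 0.5% NP-40 at 4°C, and the supernatant after 21,000xg for 90 min was quantified by TMTpro 16plex LC-MS/MS with channel sums equalised. Thermal stability relative to control samples, from duplicates, is given as log2 fold change.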

[1] = compound: C/C(=N\NC(=O)C1=CC(=CC=C1)S(=O)(=O)N2CCOCC2)/C3=C(C=CC(=C3)Cl)O
In short: as §1

[2] = compound: C1=CC(=C(C=C1Cl)C2=NC3=NC=CN=C3C(=N2)NC4=CC=NC=C4)F
In short: as §1

[3] = compound: C1=CC(=CC=C1C2=NC3=C(N2)C=C(C=C3)C(=O)N)OC4=CC=C(C=C4)Cl
In short: as §1

[4] = compound: C1=CC2=C(C=CC(=C2)/C=C\3/C(=O)NC(=NCC4=CC=CS4)S3)N=C1
In short: as §1

[5] = compound: C1=CC2=NC=CN=C2C=C1/C=C/3\C(=O)NC(=O)S3
In short: as §1

[6] = compound: C1=CC=C(C=C1)C2=NC(=C(N2)C3=CC=NC=C3)C4=CC(=C(C=C4)Cl)O
In short: as §1

[7] = compound: C1=CC=C2C(=C1)C3=NNC4=CC=CC(=C43)C2=O
In short: as §1

[8] = compound: C1CCN(C1)C(=O)NC2=CC=CC(=C2)NC3=NC=C(C(=N3)NCCC4=CN=CN4)Br
In short: as §1

[9] = compound: C1CN(CCC1(CC2=CC=C(C=C2)Cl)N)C3=NC=NC4=C3C=CN4
In short: as §1

IRAK-1-4 Inhibitor I = compound: C1COCCN1CCN2C3=CC=CC=C3N=C2NC(=O)C4=CC(=CC=C4)[N+](=O)[O-] [IRAK-1-4 Inhibitor I]
In short: as §1

ibrutinib = compound: C=CC(=O)N1CCC[C@@H](n2nc(-c3ccc(Oc4ccccc4)cc3)c3c(N)ncnc32)C1 [ibrutinib]
In short: as §1

[10] = compound: CC(=O)c1cnc2ccc(-c3cc(Cl)c(O)c(Cl)c3)nc2c1N[C@H]1CC[C@H](CN(C)C)CC1
In short: as §1

ralimetinib = compound: CC(C)(C)Cn1c(N)nc2ccc(-c3[nH]c(C(C)(C)C)nc3-c3ccc(F)cc3)nc21 [ralimetinib]
In short: as §1

[11] = compound: CC(C)(O)CC(=O)NCCn1ccc2ncnc(Nc3ccc(Oc4cccc(C(F)(F)F)c4)c(Cl)c3)c21
In short: as §1

[12] = compound: CC(C)C1=C2N=C(C=C(N2N=C1)NCC3=CC=CC=C3)NCCCCCCN
In short: as §1

[13] = compound: CC(C)C[C@@H](C=O)NC(=O)[C@H](CC(C)C)NC(=O)[C@H](CC(C)C)NC(=O)OCc1ccccc1
In short: as §1

pinometostat = compound: CC(C)N(C[C@H]1O[C@@H](n2cnc3c(N)ncnc32)[C@H](O)[C@@H]1O)[C@H]1C[C@@H](CCc2nc3cc(C(C)(C)C)ccc3[nH]2)C1 [pinometostat]
In short: as §1

[14] = compound: CC1=C(C2=C(C=C1)C(=O)C3=CC=CC=C3N2CCCN)C
In short: as §1

[15] = compound: CC1=C(C(CC(=O)N1)C2=CC=C(C=C2)C(F)(F)F)C(=O)NC3=C(C=C4C(=C3)C=NN4)F
In short: as §1

Measured: log2 fold change

ABCA4 (UniProt P78363)
inactive: erlotinib 0.191 | [1] -0.367 | [2] 0.107 | [3] -0.151 | [4] 0.062 | [5] -0.073 | [6] 0.042 | [7] 0.044 | [8] 0.033 | [9] 0.145 | IRAK-1-4 Inhibitor I 0.128 | ibrutinib 0.078 | [10] -0.014 | ralimetinib 0.215 | [11] -0.047 | [12] 0.127 | [13] 0.481 | pinometostat -0.06 | [14] 0.082

ABHD17A isoform 2 (UniProt Q96GS6)
inactive: erlotinib 0 | [1] -0.011 | [2] -0.028 | [3] 0.223 | [4] 0.035 | [5] 0.042 | [6] 0.017 | [7] 0.008 | [8] -0.068 | [9] 0.11 | IRAK-1-4 Inhibitor I 0.076 | ibrutinib 0.001 | [10] -0.042 | ralimetinib -0.034 | [11] -0.078 | [12] -0.126 | [13] 0.062 | pinometostat 0.079 | [14] 0.077

ACSL3 (UniProt O95573)
inactive: erlotinib -0.005 | [1] 0.055 | [2] 0.092 | [4] 0.078 | [5] 0.031 | [6] 0.06 | [7] 0.069 | [8] -0.005 | [9] 0.039 | IRAK-1-4 Inhibitor I 0 | ibrutinib -0.001 | [10] -0.035 | ralimetinib -0.009 | [11] -0.086 | [12] -0.025 | [13] -0.009 | pinometostat -0.004 | [14] 0.035
active: [3] 0.351

ACTN1 (UniProt H9KV75)
inactive: erlotinib 0.177 | [1] -0.162 | [2] -0.037 | [3] -0.033 | [4] 0.135 | [5] -0.14 | [7] 0.221 | [8] -0.211 | [9] 0.102 | ibrutinib -0.023 | [10] -0.04 | [11] -0.155 | [12] 0.141 | [15] 0.183 | [14] 0.092

ACO2 (UniProt Q99798)
active: [5] -0.244
inactive: erlotinib 0.049 | [1] 0.008 | [2] 0.105 | [3] -0.014 | [4] 0.077 | [6] 0.036 | [7] 0.009 | [8] 0.018 | [9] 0.015 | IRAK-1-4 Inhibitor I 0.023 | ibrutinib 0.025 | [10] -0.016 | ralimetinib -0.019 | [11] -0.068 | [12] -0.058 | [13] -0.022 | pinometostat -0.033 | [14] 0.076

ABCA3 (UniProt Q99758)
inactive: erlotinib 0.011 | [1] 0.087 | [2] 0.002 | [3] 0.057 | [4] -0.027 | [5] -0.056 | [6] 0.01 | [7] 0.031 | [8] 0.094 | [9] -0.034 | IRAK-1-4 Inhibitor I -0.012 | ibrutinib -0.051 | [10] -0.005 | ralimetinib -0.096 | [11] -0.096 | [12] -0.007 | [13] -0.017 | pinometostat 0.203 | [14] 0.054

ACOX3 (UniProt O15254)
inactive: erlotinib 0.158 | [1] -0.157 | [2] -0.068 | [3] 0.007 | [4] -0.122 | [5] -0.026 | [7] 0.071 | [8] 0.153 | [9] 0.054 | IRAK-1-4 Inhibitor I 0.095 | ibrutinib 0.035 | [10] -0.177 | [11] 0.061 | [12] 0.022 | pinometostat -0.021 | [14] -0.051

AARS2 (UniProt Q5JTZ9)
inactive: erlotinib 0.148 | [1] -0.035 | [2] 0.058 | [3] -0.019 | [4] 0.083 | [5] 0.011 | [6] 0.025 | [7] 0.021 | [8] -0.003 | [9] 0.021 | IRAK-1-4 Inhibitor I 0 | ibrutinib -0.025 | [10] -0.025 | ralimetinib -0.011 | [11] -0.099 | [12] -0.15 | [13] -0.013 | pinometostat 0.006 | [14] 0.048

ABCC10 (UniProt Q5T3U5)
inactive: erlotinib 0.142 | [1] -0.102 | [2] 0.03 | [3] -0.027 | [4] -0.19 | [5] 0.055 | [6] -0.062 | [7] 0.198 | [8] -0.03 | [9] -0.022 | ibrutinib -0.083 | [10] 0.107 | ralimetinib -0.107 | [11] 0.028 | [12] -0.253 | [13] 0.183 | [15] -0.12 | [14] 0.15
